{"source": "patent US10918647B2", "about": "“Selective bromodomain inhibition of fungal Bdf1” (University of Southern California, priority 2016, dated 2021)", "target": "T1, CaBdf1 BD2 (Candida albicans, UniProt Q5A4W8)", "T1 sequence (Q5A4W8 383-492 limits assumed)": "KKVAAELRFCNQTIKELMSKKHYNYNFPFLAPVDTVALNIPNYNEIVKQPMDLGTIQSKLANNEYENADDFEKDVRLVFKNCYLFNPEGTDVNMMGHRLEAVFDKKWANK", "experiment": "HTRF inhibition assay of BD binding to H4ac4 peptide", "details": "CaBdf1 BD2 vs corresponding Brd4 BD", "source_text": "FIG. 7. Homogeneous time-resolved fluorescence (HTRF) assay. a. Assay configuration. A biotinylated tetra-acetylated histone peptide is bound to streptavidin beads which are coupled to a terbium-based donor fluorophore, lumi-Tb cryptate. GST-tagged bromodomain is bound by an anti-GST antibody coupled to the acceptor fluorophore, an organic molecule termed D2. Peptide binding by the bromodomain brings the donor and acceptor within FRET distance. In this situation, excitation of the donor at 337 nm causes energy transfer to the […], whose emitted fluorescence is monitored at 665 nm in a time-resolved manner so as to eliminate transient background fluorescence. b-d. Binding of biotinylated tetra-acetylated H4 (H4ac4) peptide by the BD1 bromodomains from human Brd4 (b), S. cerevisiae Bdf1 (c) and C. albicans Bdf1 (d) as measured by an increase in HTRF signal with increasing peptide concentration.\nA key consideration in establishing fungal BET BD inhibition as a feasible chemotherapeutic strategy is whether these domains can be targeted by small-molecule inhibitors without antagonizing human BET function. To probe the similarity between the ligand binding pockets of C. albicans and human BET BDs, we asked whether human BET inhibitors could inhibit CaBdf1 BDs.", "note": "At least one structure is not confirmed: it was looked up by name or label, or the drawing left a doubt."}
{"molecule": "CCOC(=O)Nc1cc(-c2ccc(C)c(NS(C)(=O)=O)c2)nn2c(C)nnc12", "note": "[bromosporine]", "values": [{"measurement": "reduction in sensitivity relative to Brd4", "result": 20, "unit": "fold"}]}
